# Measured values as given in patent US20120079614A1.
# Protein sequences, listed by entry. Tags and fused reporters are not part of them. Lines headed by an entry give the natural chain unless they say otherwise; changes in a name come on top. Residues count along the entry.
# UniProt P01137, residues 279-390: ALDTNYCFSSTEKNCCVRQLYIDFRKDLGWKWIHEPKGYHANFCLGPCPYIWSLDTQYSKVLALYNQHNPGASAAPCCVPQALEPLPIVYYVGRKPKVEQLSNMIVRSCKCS
# UniProt Q6YHK3: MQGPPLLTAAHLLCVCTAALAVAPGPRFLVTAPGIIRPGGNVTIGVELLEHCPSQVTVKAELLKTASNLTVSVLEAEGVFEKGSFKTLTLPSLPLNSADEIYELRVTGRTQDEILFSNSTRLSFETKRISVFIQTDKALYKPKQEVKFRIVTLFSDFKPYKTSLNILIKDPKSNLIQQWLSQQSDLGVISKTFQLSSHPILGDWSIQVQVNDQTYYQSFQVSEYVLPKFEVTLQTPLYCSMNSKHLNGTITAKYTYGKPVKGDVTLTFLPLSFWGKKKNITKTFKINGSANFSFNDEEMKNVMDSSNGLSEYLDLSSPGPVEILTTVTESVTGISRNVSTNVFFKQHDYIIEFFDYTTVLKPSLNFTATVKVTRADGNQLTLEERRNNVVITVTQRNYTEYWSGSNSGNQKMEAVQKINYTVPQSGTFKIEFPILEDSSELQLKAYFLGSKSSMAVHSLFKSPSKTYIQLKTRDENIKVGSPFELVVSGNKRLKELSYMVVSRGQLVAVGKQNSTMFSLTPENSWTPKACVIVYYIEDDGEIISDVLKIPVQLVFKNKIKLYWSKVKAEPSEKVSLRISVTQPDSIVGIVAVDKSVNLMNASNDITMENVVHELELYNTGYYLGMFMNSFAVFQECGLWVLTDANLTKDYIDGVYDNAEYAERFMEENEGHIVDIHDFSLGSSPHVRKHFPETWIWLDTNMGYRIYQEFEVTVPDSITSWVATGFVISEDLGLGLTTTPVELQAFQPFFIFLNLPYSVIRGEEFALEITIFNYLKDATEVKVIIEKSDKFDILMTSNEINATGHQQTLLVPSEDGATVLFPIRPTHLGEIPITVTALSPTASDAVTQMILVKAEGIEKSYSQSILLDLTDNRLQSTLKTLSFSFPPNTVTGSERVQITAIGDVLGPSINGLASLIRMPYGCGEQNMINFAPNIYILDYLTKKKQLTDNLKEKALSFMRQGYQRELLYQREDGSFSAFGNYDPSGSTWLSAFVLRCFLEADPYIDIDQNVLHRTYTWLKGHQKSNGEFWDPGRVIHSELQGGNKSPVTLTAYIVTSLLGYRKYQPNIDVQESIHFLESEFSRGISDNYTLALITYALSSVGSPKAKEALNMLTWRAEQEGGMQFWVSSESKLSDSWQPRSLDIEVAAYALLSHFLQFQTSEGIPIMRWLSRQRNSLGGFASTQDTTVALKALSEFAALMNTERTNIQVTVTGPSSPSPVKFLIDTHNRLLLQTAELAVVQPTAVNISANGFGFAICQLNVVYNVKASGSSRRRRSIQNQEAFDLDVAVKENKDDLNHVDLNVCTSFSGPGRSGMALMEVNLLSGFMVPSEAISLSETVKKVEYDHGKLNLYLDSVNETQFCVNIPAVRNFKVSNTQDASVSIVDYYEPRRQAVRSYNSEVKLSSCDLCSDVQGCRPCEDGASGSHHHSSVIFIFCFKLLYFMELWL
# No constants are given. Whether binding was seen depends on the method and setting. Some binding calls cover weakened binding; strength is not graded here.
# Legend:
# TGF-β2 = molecular target: T1, TGF-β2 (UniProt P61812); experiment: SPR (conclusions of Example 3)
# T1 sequence (looked up): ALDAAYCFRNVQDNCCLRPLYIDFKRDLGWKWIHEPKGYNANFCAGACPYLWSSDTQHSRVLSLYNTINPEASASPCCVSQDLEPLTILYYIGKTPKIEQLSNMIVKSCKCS
# [1] = molecular target: Transforming Growth Factor-β1 (TGF-β1) (UniProt P01137); experiment: affinity labeling with 125I-TGF-β1, SDS-PAGE and autoradiography (FIG. 11)
# [2] = molecular target: Transforming Growth Factor-β1 (TGF-β1) (UniProt P01137); experiment: affinity cross-link labeling with 150 pM 125I-TGF-β1, with or without excess unlabeled TGF-β1; SDS-PAGE
# [3] = molecular target: Transforming Growth Factor-β1 (TGF-β1) (UniProt P01137); experiment: affinity cross-link labeling of media of PIPLC-treated HaCaT cells with 125I-TGF-β1, SDS-PAGE, autoradiography; competitor: unlabeled TGF-β1
binding (TGF-β2),binding [1],binding [2],binding [3],Substance
binds,–,–,–,soluble CD109 protein (full-length recombinant CD109) (from UniProt Q6YHK3 22-1420) (receptor)
–,binds,binds,binds,soluble endogenous CD109 released from the keratinocyte cell surface by PIPLC (150 kDa protein) (from UniProt Q6YHK3 22-1420) (receptor)
